Measured data: PubChem BioAssay AID504774 (Drosophila RNAi Screening Center, 2011)
The screen tested about 23,000 reagents; below is an unselected part of those that have a named target and a result. 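Values are quantile-normalised luminescence on an arbitrary scale; higher means more cells surviving MMS.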 Names joined by + are all predicted targets of the reagent. Reagent sequences are not shown.

Assay: 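Knock-downs that shift viability of MMS-exposed cells relative to untreated ones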 (primary screen)
System: Drosophila Kc167 cells
Knock-down reagent: long dsRNA against Drosophila genes, about 0.25 µg dsRNA per well
Timing: about 6 days: 3 days knock-down, then 3 days with or without MMS
Conditions: methyl methanesulphonate 0.004% (w/v) for 3 days after knock-down
Read-out: 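Viability in wells given MMS, read as ATP luminescence, normalised by quantiles plate by plate and averaged across replicates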
Direction: mean viability with MMS and viability with MMS: higher = more surviving cells after MMS

Target gene | DRSC id | mean viability with MMS | viability with MMS, replicate 1 | viability with MMS, replicate 2
RpL30 | DRSC02087 | 3.22e6 | 3.67e6 | 3.71e6
Cyp9c1 | DRSC04607 | 3.72e6 | 4.23e6 | 4.11e6
CG8064 | DRSC16373 | 3.36e6 | 3.71e6 | 3.93e6
Tat | DRSC19602 | 3.73e6 | 4.21e6 | 4.12e6
Tsp74F | DRSC10508 | 3.60e6 | 4.07e6 | 4.07e6
Coop | DRSC06604 | 3.15e6 | 2.60e6 | 4.03e6
CG14088 | DRSC10092 | 3.52e6 | 4.05e6 | 3.91e6
GC | DRSC08396 | 3.50e6 | 4.04e6 | 3.90e6
CG5819 | DRSC04520 | 3.36e6 | 3.87e6 | 3.69e6
CG5172 | DRSC19936 | 3.33e6 | 3.74e6 | 3.71e6
CG6984 | DRSC07013 | 3.59e6 | 4.09e6 | 4.05e6
CG1494 | DRSC20509 | 3.49e6 | 4.00e6 | 3.93e6
Atox1 | DRSC22416 | 3.57e6 | 4.02e6 | 4.05e6
unc-4 | DRSC20381 | 3.52e6 | 3.84e6 | 4.13e6
unc-4 | DRSC22074 | 3.76e6 | 4.24e6 | 4.17e6
Nup153 | DRSC19904 | 3.13e6 | 3.61e6 | 3.55e6
CG13102 | DRSC02202 | 3.80e6 | 4.66e6 | 3.98e6
CtsL2 | DRSC06978 | 3.65e6 | 4.15e6 | 4.15e6
CG34033 | DRSC05190 | 3.45e6 | 3.96e6 | 3.82e6
CG14086 | DRSC10090 | 3.62e6 | 4.16e6 | 4.05e6
Wdr92 | DRSC10187 | 3.59e6 | 4.08e6 | 4.06e6
Osi7 | DRSC12176 | 3.45e6 | 3.95e6 | 3.89e6
CG14478 | DRSC06450 | 3.52e6 | 4.00e6 | 3.99e6
Strn-Mlck | DRSC05032 | 3.61e6 | 4.11e6 | 4.08e6
Strn-Mlck | DRSC05598 | 3.49e6 | 3.95e6 | 3.98e6
Strn-Mlck | DRSC07471 | 3.51e6 | 3.93e6 | 4.04e6
LManIV | DRSC03222 | 3.55e6 | 3.95e6 | 4.11e6
term | DRSC21730 | 3.50e6 | 3.92e6 | 4.03e6
HIPP1 | DRSC11748 | 3.42e6 | 3.92e6 | 3.81e6
SMC3 | DRSC20227 | 3.65e6 | 4.21e6 | 4.03e6
CG41020 (retired record) | DRSC20866 | 2.43e6 | 3.88e6 | 3.75e6
CG30196 | DRSC04156 | 3.72e6 | 4.16e6 | 4.23e6
Sec20 | DRSC12295 | 3.46e6 | 3.96e6 | 3.92e6
CG11294 | DRSC17777 | 3.10e6 | 3.59e6 | 3.55e6
CG14451 | DRSC11708 | 3.29e6 | 3.80e6 | 3.64e6
ppk3 | DRSC04275 | 3.68e6 | 4.06e6 | 4.26e6
CG14435 | DRSC17928 | 3.30e6 | 3.86e6 | 3.59e6
CG14435 | DRSC23282 | 3.55e6 | 4.00e6 | 4.08e6
CG31915 | DRSC03000 | 3.51e6 | 4.04e6 | 3.93e6
CG11629 | DRSC03695 | 3.56e6 | 4.04e6 | 4.04e6
tei | DRSC07616 | 3.44e6 | 3.82e6 | 3.78e6
l(2)gl | DRSC00825 | 1.96e6 | 4.13e6 | 4.08e6
CG12581 | DRSC12206 | 3.57e6 | 4.04e6 | 4.05e6
CG12581 | DRSC12207 | 3.76e6 | 4.18e6 | 4.23e6
CG13216 | DRSC06338 | 3.58e6 | 3.93e6 | 4.22e6
CG8219 | DRSC10971 | 3.53e6 | 4.08e6 | 3.93e6
CG42449 | DRSC18084 | 3.67e6 | 4.23e6 | 4.10e6
Agpat2 | DRSC03532 | 3.25e6 | 3.72e6 | 3.50e6
CG18418 | DRSC08535 | 3.56e6 | 4.05e6 | 4.03e6
HGTX | DRSC09319 | 3.58e6 | 4.08e6 | 4.04e6
HGTX | DRSC11181 | 3.64e6 | 4.16e6 | 4.06e6
CG15753 (retired record) | DRSC19718 | 2.80e6 | 3.60e6 | 3.58e6
CG15753 (retired record) | DRSC22985 | 3.55e6 | 4.04e6 | 4.04e6
fidipidine | DRSC07618 | 3.62e6 | 4.01e6 | 4.18e6
JYalpha | DRSC17224 | 3.55e6 | 4.06e6 | 4.00e6
CG14826 | DRSC10197 | 3.44e6 | 3.88e6 | 3.92e6
l(2)05714 | DRSC03118 | 3.57e6 | 4.21e6 | 3.90e6
CG9826 | DRSC04570 | 3.66e6 | 4.07e6 | 4.22e6
CG5968 | DRSC02916 | 3.33e6 | 3.74e6 | 3.76e6
CG14984 | DRSC08442 | 3.53e6 | 4.01e6 | 3.98e6
CG4073 | DRSC15542 | 3.58e6 | 4.04e6 | 4.06e6
ArgRS-m | DRSC14186 | 3.53e6 | 4.03e6 | 3.92e6
CG32773 (retired record) | DRSC17330 | 3.49e6 | 3.88e6 | 4.05e6
wuho | DRSC18101 | 3.60e6 | 4.03e6 | 4.13e6
Trf4-1 | DRSC17775 | 3.47e6 | 3.93e6 | 3.96e6
CG12689 | DRSC17879 | 3.51e6 | 3.95e6 | 4.03e6
CG42634 + CG42635 | DRSC02450 | 3.51e6 | 4.07e6 | 3.90e6
CG33342 | DRSC13662 | 3.47e6 | 4.05e6 | 3.82e6

8 entries from above, ordered by “mean viability with MMS”, ascending:
Target gene | DRSC id | mean viability with MMS | viability with MMS, replicate 1 | viability with MMS, replicate 2
CG41020 (retired record) | DRSC20866 | 2.43e6 | 3.88e6 | 3.75e6
HIPP1 | DRSC11748 | 3.42e6 | 3.92e6 | 3.81e6
Sec20 | DRSC12295 | 3.46e6 | 3.96e6 | 3.92e6
term | DRSC21730 | 3.50e6 | 3.92e6 | 4.03e6
Strn-Mlck | DRSC07471 | 3.51e6 | 3.93e6 | 4.04e6
LManIV | DRSC03222 | 3.55e6 | 3.95e6 | 4.11e6
SMC3 | DRSC20227 | 3.65e6 | 4.21e6 | 4.03e6
CG30196 | DRSC04156 | 3.72e6 | 4.16e6 | 4.23e6
